Reference: patent publication US12274684B2, “Treatment of vasculopathy with prostacyclin and mesenchymal stem cells” (United Therapeutics Corporation, priority 2013, dated 2025)

System: human bone marrow MSC
Test: Microarray gene expression analysis of MSC (Illumina Human HT12 Expression BeadChip)
Type: cell-based
Conditions: 250 μg/mL, 24 h
Protocol: Human bone marrow MSC were expanded and seeded into six (6) T225 flasks using standard growth medium (Table 1). At 95-99% confluency, cells were thoroughly washed with PBS. Three (3) flasks were replenished with basal media containing 250 μg/mL treprostinil, (+)Tre, and the remaining three (3) flasks were replenished with unsupplemented basal media, (−)Tre. After 24 hours of culture, representative images were captured from (+) Tre and (−) Tre cultures. Conditioned media was collected from each replicate, divided into two samples of appropriate volumes, and analyzed separately for: 1) secreted proteins (Myriad RBM InflammationMAP® 1.0) and 2) exosome RNA content. Cells were lysed directly from culture flasks, processed for total RNA isolation, and analyzed for gene expression by microarray (Illumina Human HT12 Expression BeadChip). Microarray gene expression analysis was also performed on MSC from cultures without (−) or with (+) 250 ug/mL treprostinil. Three (3) biological replicates from each condition were analyzed. Of the 77,612 sequences identified among all replicates, only 24,273 were detected above the arbitrary background of 50 counts. 2,984 RNA sequences were unique to Tre(−) cultures, while 1,781 RNA sequences were unique to Tre(+) cultures (panel A). Genes detected in both conditions were further analyzed for differential expression (panel). […] Genes that are expressed only in Tre(−) cultures (that is to say, completely turned off in the Tre(+) cultures) are shown in Table 5.

CCCCC[C@H](O)CC[C@@H]1[C@H]2Cc3cccc(OCC(=O)O)c3C[C@H]2C[C@H]1O [treprostinil]
Genes at least 4-fold higher in Tre(+) MSC cultures: 171 | Genes at least 4-fold higher in untreated MSC: 268 | Commonly expressed genes that differed significantly (p<0.01) (of 19,508 genes): 1,690 | RNA sequences unique to Tre(+) cultures (of 24,273 detected): 1,781 | RNA sequences unique to Tre(−) cultures (of 24,273 detected): 2,984
